# Data taken from article PMC7819943, “Rice protein-binding microarrays: a tool to detect cis-acting elements near promoter regions in rice”.
# This is one part of the list.
# Target: T1, OsSMF1 (Oryza sativa, UniProt Q6ZLB0 1-436)
# T1 sequence: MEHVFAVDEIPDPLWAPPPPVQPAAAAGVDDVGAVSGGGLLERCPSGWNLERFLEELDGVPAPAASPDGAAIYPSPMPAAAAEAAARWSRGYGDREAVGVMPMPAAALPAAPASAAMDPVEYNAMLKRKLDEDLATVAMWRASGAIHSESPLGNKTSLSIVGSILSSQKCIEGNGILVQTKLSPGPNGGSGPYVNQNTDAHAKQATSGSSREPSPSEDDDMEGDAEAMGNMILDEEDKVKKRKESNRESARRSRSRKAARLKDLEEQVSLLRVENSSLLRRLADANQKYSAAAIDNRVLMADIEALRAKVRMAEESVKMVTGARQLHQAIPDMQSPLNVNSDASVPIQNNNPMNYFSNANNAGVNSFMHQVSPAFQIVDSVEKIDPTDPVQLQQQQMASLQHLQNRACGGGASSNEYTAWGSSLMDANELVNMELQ
# Assay: protein-binding microarray (RPBM); PBS, 2% BSA, 51.3 ng/ul salmon testes DNA, 50 uM zinc acetate, 200 nM TF, 25 C, 1 h; high values mean tight binding
# Conditions: protein: recombinant; tags: N-terminal polyhistidine and DsRed monomer fusion (pET32a); chain copies: 2; label: CyDye5-dUTP incorporated in the synthesized complementary strand; 3' TTTTT single-stranded linker to array surface; dsDNA, one strand shown
# Outline: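 Using Ni–NTA, transcription factors fused N-terminally to polyhistidine and DsRed were purified after expression in E. coli BL21-CodonPlus. These were incubated at 200 nM with a blocked, double-stranded custom Agilent array for 1 h at 25 °C in a buffer containing 50 µM zinc acetate, and the array was washed. The binding signal is per-feature fluorescence intensity (arbitrary units) on an Axon 4000B scanner.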
row,Sequence,binding signal
1,TCTTGCGGACGGGACACGTACGACGGCAGCCAAGCCAGCCCGGAGTCACCTAGTGCAG,5560 fluorescence intensity (a.u.)
2,GGCTAAGCCTGATGTTGTTGGAGGATGTGTGATCTGTCATCGGAGTCACCTAGTGCAG,4360 fluorescence intensity (a.u.)
3,AGCAGAGAAAATTAGGCAAGCTCCACGTGTCGGGCTTCCTCGGAGTCACCTAGTGCAG,13900 fluorescence intensity (a.u.)
4,GGCCTGGCCCAACCCATCACGGAGACAACAGTCTTCAAATCGGAGTCACCTAGTGCAG,28900 fluorescence intensity (a.u.)
5,CGTACAACGGGTGTGTGTTTGGAGCCTGTAGCATGTGGTGCGGAGTCACCTAGTGCAG,4250 fluorescence intensity (a.u.)
6,GCCCAGCTTGCGCACGGGGAGGGGAGGGGAGAATGGGCCGCGGAGTCACCTAGTGCAG,5540 fluorescence intensity (a.u.)
7,CACTAATGGAGTTGTTAGTGACAGGGCAGCTGCTCCTCTGCGGAGTCACCTAGTGCAG,6620 fluorescence intensity (a.u.)
8,CATATGGACCCCACCACTCGCGGACCAACATGTCAGTGATCGGAGTCACCTAGTGCAG,3370 fluorescence intensity (a.u.)
9,TCCCAACTAACACGAGTGGTCACTAGTCAGCACCATGGATCGGAGTCACCTAGTGCAG,4570 fluorescence intensity (a.u.)
10,AATAACACTATATACGTCACTCTTGGGTGACATGGATGGCCGGAGTCACCTAGTGCAG,7270 fluorescence intensity (a.u.)
11,CGAACCTGTCTACATCGCCCGTGTCTTGTGCGTTTGCTCTCGGAGTCACCTAGTGCAG,3150 fluorescence intensity (a.u.)
12,GAACACAATTACGTTGCAGTATTCCCTTCGTTCTAAAATACGGAGTCACCTAGTGCAG,3590 fluorescence intensity (a.u.)
13,CACATAAATAATAATAAAATGTGGGACCCACGTGGGCCCCCGGAGTCACCTAGTGCAG,10400 fluorescence intensity (a.u.)
14,CTCTTCTCTTCTCTACGTGGAGCTTACAAGTGACAGATACCGGAGTCACCTAGTGCAG,3900 fluorescence intensity (a.u.)
15,GCAACGATAATCTCTTCTGGTGACGTGGTCATCAATACCTCGGAGTCACCTAGTGCAG,16800 fluorescence intensity (a.u.)
16,GTCTACCGGCCTAGGCTGGCTGAGTTGGAAAGAATTCAATCGGAGTCACCTAGTGCAG,4320 fluorescence intensity (a.u.)
17,GCGGCGAAGCAGGGAGGAGGGAGGAGGAGGGGCGGCGGTGCGGAGTCACCTAGTGCAG,5300 fluorescence intensity (a.u.)
18,GATATGTACGTCAGCCTCATGTATATCAAAACTACTCAGGCGGAGTCACCTAGTGCAG,6580 fluorescence intensity (a.u.)
19,TACTACCACTTGCCCTGACGTACGTACTACACGCGCCCCGCGGAGTCACCTAGTGCAG,4780 fluorescence intensity (a.u.)
20,CTTGCGTCCTGTGTTTGAAGAGAAAACAATCACGGACAGGCGGAGTCACCTAGTGCAG,4760 fluorescence intensity (a.u.)
21,CGCACGCAGAGACCGGTGGTAGTGTCGTCACACTGCCGTTCGGAGTCACCTAGTGCAG,3840 fluorescence intensity (a.u.)

# Reformatted tab-delimited: entries from further up
row	Sequence	binding signal
3	AGCAGAGAAAATTAGGCAAGCTCCACGTGTCGGGCTTCCTCGGAGTCACCTAGTGCAG	13900 fluorescence intensity (a.u.)
4	GGCCTGGCCCAACCCATCACGGAGACAACAGTCTTCAAATCGGAGTCACCTAGTGCAG	28900 fluorescence intensity (a.u.)
5	CGTACAACGGGTGTGTGTTTGGAGCCTGTAGCATGTGGTGCGGAGTCACCTAGTGCAG	4250 fluorescence intensity (a.u.)
6	GCCCAGCTTGCGCACGGGGAGGGGAGGGGAGAATGGGCCGCGGAGTCACCTAGTGCAG	5540 fluorescence intensity (a.u.)
7	CACTAATGGAGTTGTTAGTGACAGGGCAGCTGCTCCTCTGCGGAGTCACCTAGTGCAG	6620 fluorescence intensity (a.u.)
8	CATATGGACCCCACCACTCGCGGACCAACATGTCAGTGATCGGAGTCACCTAGTGCAG	3370 fluorescence intensity (a.u.)
9	TCCCAACTAACACGAGTGGTCACTAGTCAGCACCATGGATCGGAGTCACCTAGTGCAG	4570 fluorescence intensity (a.u.)
10	AATAACACTATATACGTCACTCTTGGGTGACATGGATGGCCGGAGTCACCTAGTGCAG	7270 fluorescence intensity (a.u.)
11	CGAACCTGTCTACATCGCCCGTGTCTTGTGCGTTTGCTCTCGGAGTCACCTAGTGCAG	3150 fluorescence intensity (a.u.)
12	GAACACAATTACGTTGCAGTATTCCCTTCGTTCTAAAATACGGAGTCACCTAGTGCAG	3590 fluorescence intensity (a.u.)
13	CACATAAATAATAATAAAATGTGGGACCCACGTGGGCCCCCGGAGTCACCTAGTGCAG	10400 fluorescence intensity (a.u.)

# Later entries.

row,Sequence,binding signal
1,AATAATCAATAATCGTAAATGCGATAAATAAATTTCATAACGGAGTCACCTAGTGCAG,21400 fluorescence intensity (a.u.)
2,TGTCGTCAACATTAGCTAGAAATGGAATAAAGTTATAGTGCGGAGTCACCTAGTGCAG,3910 fluorescence intensity (a.u.)
3,AACCAGCACGCGATGGGGAGGGGCGAGCAGGAGGCGGCGGCGGAGTCACCTAGTGCAG,3320 fluorescence intensity (a.u.)
4,TTTGCGATGCTGACTGGTCTGAGAGCCTTGATCCGATGGTCGGAGTCACCTAGTGCAG,44800 fluorescence intensity (a.u.)
5,TACCATCTTTGAACAAATGAAGGACCGCAATGTTGTGTCACGGAGTCACCTAGTGCAG,3650 fluorescence intensity (a.u.)
6,TTCCTAACACCAGTCCACCTCTGCTTGGTCGTCACCAATTCGGAGTCACCTAGTGCAG,3410 fluorescence intensity (a.u.)
7,TGGCGCGACTGCTCGGGTCACCATAAATACGGGTAGGTGGCGGAGTCACCTAGTGCAG,3940 fluorescence intensity (a.u.)
8,AGAGCAGACACACAACCCGTGTCAGCATAGTCGCACACAACGGAGTCACCTAGTGCAG,32600 fluorescence intensity (a.u.)
9,TTCCATATCACTCCAGGTGAGTGACTCATATCAAATAACACGGAGTCACCTAGTGCAG,6730 fluorescence intensity (a.u.)
10,CTGTTCGCGGCGTCGCTGGCGTACCTGATGCGGCGGTGGCCGGAGTCACCTAGTGCAG,4080 fluorescence intensity (a.u.)
11,CTCCTAACCACGTCGCATACTTAAACTTAACCACTCGTGACGGAGTCACCTAGTGCAG,3320 fluorescence intensity (a.u.)
12,ATTCAGGTTTGGATAGAGTGGAACTTAACATGATGCAGACCGGAGTCACCTAGTGCAG,3300 fluorescence intensity (a.u.)
13,AACGCACAAACTTTCTCCAGGTCAGTACGTAAGCCACTTGCGGAGTCACCTAGTGCAG,3150 fluorescence intensity (a.u.)
14,TAATGGAGTGGCAACTATCTTGAAGTGGTAATTAAACTATCGGAGTCACCTAGTGCAG,3160 fluorescence intensity (a.u.)
15,TTATAGGAAGTAGTTTGCAACGTGGCGTTGCATATAGAGGCGGAGTCACCTAGTGCAG,5930 fluorescence intensity (a.u.)
16,GACCGGGTTTCCCCGTGGCGCCACCACCACCCATGGGCCCCGGAGTCACCTAGTGCAG,3680 fluorescence intensity (a.u.)
17,ACATATTTCAATGTGTATCTTCACTGTGTTTCATAATTTTCGGAGTCACCTAGTGCAG,23400 fluorescence intensity (a.u.)
18,TTCGCCGGCGGCCCGTCAGGCCGAAAGCGCCACGTGGGCGCGGAGTCACCTAGTGCAG,15900 fluorescence intensity (a.u.)
19,CGCGTTACAGGTTTCCAGCACAACCGGTCGGCGTCGTCAGCGGAGTCACCTAGTGCAG,4420 fluorescence intensity (a.u.)
20,TGGTAGCGATCCAATCTGCCTCCGGGCCCTGTCACACTAACGGAGTCACCTAGTGCAG,3720 fluorescence intensity (a.u.)
21,GTGGTGCGGCCGTGTACACGTCCCCGTGGAGGCCGGCGCCCGGAGTCACCTAGTGCAG,4010 fluorescence intensity (a.u.)
